Measured values: PubChem BioAssay AID588590 (National Center for Advancing Translational Sciences (NCATS), 2011)
“And” between values parts separate entries of the source, which are not always exact repeats. Equal entries are not always repeated. Out of some 390,000 compounds screened, about 4,000 (1%) were called active. Inconclusive means that the source gave no clear call. Such entries were picked first, then a sample of the others. The call rests on the fitted dose curve; in most records, active means well fitted inhibition curve with a large enough effect; inconclusive means small, poorly fitted or top-dose-only effect, or another doubt; inactive means no such curve, though single readings can be large or run the other way. Potencies of inconclusive entries are doubtful fits and often do not repeat.

The chains behind the UniProt entries cited, without tags or fusion partners. Where a name states a change or a piece, a line headed by the entry shows the natural chain unless it says otherwise.
UniProt Q9UNA4: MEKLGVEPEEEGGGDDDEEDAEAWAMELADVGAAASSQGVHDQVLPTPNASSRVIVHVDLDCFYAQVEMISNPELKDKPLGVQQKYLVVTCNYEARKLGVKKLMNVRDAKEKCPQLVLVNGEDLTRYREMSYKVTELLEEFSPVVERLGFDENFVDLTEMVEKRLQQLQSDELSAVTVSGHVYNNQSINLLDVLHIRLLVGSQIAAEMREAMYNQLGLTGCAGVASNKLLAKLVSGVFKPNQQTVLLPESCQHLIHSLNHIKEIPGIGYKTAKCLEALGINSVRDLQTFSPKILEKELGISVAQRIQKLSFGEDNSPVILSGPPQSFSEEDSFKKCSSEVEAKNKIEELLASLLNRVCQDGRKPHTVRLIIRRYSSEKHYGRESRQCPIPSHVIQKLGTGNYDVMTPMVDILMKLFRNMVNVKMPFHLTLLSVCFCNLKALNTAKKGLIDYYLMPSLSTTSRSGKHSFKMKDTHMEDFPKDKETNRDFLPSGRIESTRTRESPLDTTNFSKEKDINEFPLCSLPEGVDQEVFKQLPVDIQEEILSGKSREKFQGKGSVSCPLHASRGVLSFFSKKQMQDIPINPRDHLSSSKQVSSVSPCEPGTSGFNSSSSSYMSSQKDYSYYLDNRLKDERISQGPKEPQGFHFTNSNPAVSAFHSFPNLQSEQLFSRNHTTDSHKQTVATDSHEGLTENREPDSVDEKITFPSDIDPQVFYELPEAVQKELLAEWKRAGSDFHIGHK

biological target: DNA polymerase iota (Homo sapiens) (UniProt Q9UNA4); assay: qHTS for Inhibitors of Polymerase Iota; settings: Pol iota fluorescent replication assay, 10 min; series mostly up to 115 µM
Summary of the method: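 Pol iota at 10 nM preincubated 15 min with compounds at room temperature; reaction started with fluorescent substrate, 50 nM final. Fluorescence read kinetically at 0 and 10 min; buffer-only wells as negative control.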
Potency means the concentration at half of the fitted maximal effect.

Row | Compound | Potency
1 | O=C1C(C=NCc2ccncc2)=C(O)c2ccccc21 | inactive
2 | O=C(N/N=C\c1ccc(Br)o1)C1COc2ccccc2O1 (stereo unspecified) | active: 44.7 µM
3 | O=C(NCc1ccc(F)cc1)c1ccc2c(c1)N(Cc1ccc(F)cc1Cl)C(=O)CS2 | inconclusive: 89.1 µM [inhibitor, single point]
4 | O=C1CCC(C(=O)OCc2c(Cl)cccc2Cl)N1 (stereo unspecified) | inconclusive: 50.1 µM [inhibitor, partial curve, poor fit]
5 | O=C(NNC(=O)c1ccc2[nH]c(=O)c(=O)[nH]c2c1)c1cccc(Br)c1 | inconclusive: 11.2 µM [inhibitor, full curve]
6 | O=C(Nc1nnc(S(=O)(=O)N2CCCC2)s1)c1cccc([N+](=O)[O-])c1 | inactive
7 | COc1ccc(NC(=O)CSc2nc3c([nH]c4ccccc43)c(=O)n2-c2ccccc2)c(OC)c1 | inactive
8 | CCN1/C(=C/C=C/C=C/c2sc3ccccc3[n+]2CC)Sc2ccccc21 | active: 17.8 µM
9 | NCc1nc2cccnc2n1Cc1ccccc1Cl | inconclusive: 89.1 µM [inhibitor, single point]
10 | COc1ccc(Oc2ccccc2C=O)cc1 | inconclusive: 1.78 µM [inhibitor, partial curve]
11 | C/C(=C\C=C(C#N)C#N)c1cc(C#N)c(N)o1 | inconclusive: 31.6 µM [inhibitor, partial curve, poor fit]
12 | COc1cccc(/C=C/C(=O)OCC(=O)Nc2nnc(-c3ccccc3)o2)c1OC | inconclusive: 50.1 µM [inhibitor, partial curve, poor fit]
13 | O=C1CSC(=S)N1CC1CCCO1 (stereo unspecified) | inconclusive: 12.6 µM [inhibitor, partial curve]
14 | COc1ccc(C2=NOC3(CC(=O)N(c4ccc5ccccc5c4)C3=O)C2)c(OC)c1 (stereo unspecified) | inconclusive: 112 µM [inhibitor, partial curve, poor fit]
15 | Cc1cc(C(=O)OCC(=O)c2ccc3c(c2)OCCO3)c(C)o1 | inconclusive: 3.16 µM [inhibitor, single point]
16 | Cn1c(/C=C/c2ccc(Br)cc2)nc2ccccc2c1=O | inconclusive: 2.82 µM [inhibitor, full curve, poor fit]
17 | Cc1ccc(CSc2nnc(-c3ccncc3)n2CC2CCCO2)cc1 (stereo unspecified) | inactive
18 | Cc1ccc(C(=O)NC(=S)NCC2CCCO2)cc1Br (stereo unspecified) | inconclusive: 89.1 µM [inhibitor, partial curve, poor fit]
19 | COc1ccc(C(=O)NC(C)c2nc3ccccc3[nH]2)cc1OC (stereo unspecified) | inconclusive: 79.4 µM [inhibitor, partial curve, poor fit]
20 | COc1cc(-c2noc(C)c2C#Cc2ccsc2)cc(OC)c1OC | inconclusive: 89.1 µM [inhibitor, partial curve] and inconclusive: 3.55 µM [inhibitor, partial curve, poor fit]
21 | Cc1ccccc1NC(=O)CN1CCOCC1 | inactive

Row | Compound | Potency
22 | CCCCOc1cc(NCc2ccccc2)c2ncn(C(C)C)c2c1 | inconclusive: 14.1 µM [inhibitor, partial curve, poor fit]
23 | FC(F)(F)c1cccc(-c2nc3nc(Cl)c(Cl)nc3[nH]2)c1 | inconclusive: 22.4 µM [inhibitor, partial curve, poor fit]
24 | CC(=O)Nc1ccc(O)cc1[N+](=O)[O-] | inconclusive: 89.1 µM [inhibitor, partial curve]
25 | COc1ccc(C(=O)N2CCN(c3ccccc3)CC2)cc1S(=O)(=O)NC1CC1 | inactive
26 | Cc1ccc2nc(N3CCC(C(=O)N4CCN(c5cccc(C)c5C)CC4)CC3)[nH]c2c1 | inactive
27 | COC(=O)Cc1[nH]n(-c2ccccc2)c(=O)c1C=Nc1ccc(C)cc1 | inconclusive: 100 µM [inhibitor, partial curve, poor fit]
28 | CCn1c(NC(C)=O)c(-c2ccccc2Cl)c(=O)c2ccccc21 | inactive
29 | O=C(CSc1nnc(Cc2cc(=O)[nH]c(=O)[nH]2)n1-c1ccc(Cl)cc1)NCC1CCCO1 (stereo unspecified) | inconclusive: 89.1 µM [inhibitor, single point]
30 | COc1cc(/C=C2\Oc3cc(O)ccc3C2=O)ccc1O | inconclusive: 2 µM [inhibitor, full curve, poor fit]
31 | COc1ccc(CNc2nc3ccccc3n2Cc2ccccc2)cc1OC | inconclusive: 44.7 µM [inhibitor, partial curve, poor fit]
32 | O=c1cc(O)c2c(=O)n(C3CCCCC3)c3ccccc3c2o1 | inconclusive: 15.8 µM [inhibitor, full curve, poor fit]
33 | CCCCn1c(SCC(=O)Nc2sc3c(c2C(N)=O)CCC3)nnc1-c1ccccc1 | inconclusive: 20 µM [inhibitor, full curve, poor fit]
34 | CC(=O)Nc1ccc(C(=O)NCC2(N3CCCCC3)CCCCC2)cc1 | inconclusive: 89.1 µM [inhibitor, single point]
35 | COc1ccc(N2CCN(C(=O)CN(C)S(=O)(=O)c3cc(C)ccc3OC)CC2)cc1 | inconclusive: 79.4 µM [inhibitor, single point]
36 | CC(=O)c1cn(CC(=O)Nc2ccc(C)cc2)c2ccccc12 | inconclusive: 39.8 µM [inhibitor, partial curve, poor fit]
37 | CC(=O)c1ccc(NC(=O)COc2ccccc2C(=O)Nc2ccc(C)cn2)cc1 | inconclusive: 39.8 µM [inhibitor, partial curve, poor fit]
38 | CCN1CCSc2ccc(C(=O)NCc3ccccc3F)cc21 | inconclusive: 8.91 µM [inhibitor, full curve, poor fit]
39 | Cc1cc2oc(=O)sc2cc1NS(=O)(=O)c1cccc2cccnc12 | inconclusive: 25.1 µM [inhibitor, single point]
40 | O=C(CN1C(=O)COc2ccccc21)Nc1ccc(N2CCOCC2)cc1 | inconclusive: 31.6 µM [inhibitor, partial curve, poor fit]
41 | Cc1ccc(/C=C/C(=O)NCCc2ccccc2)o1 | inconclusive: 15.8 µM [inhibitor, full curve, poor fit]

3 compounds out of the list, sorted by length of the SMILES, smallest number first:
Row | Compound | Potency
22 | CCCCOc1cc(NCc2ccccc2)c2ncn(C(C)C)c2c1 | inconclusive: 14.1 µM [inhibitor, partial curve, poor fit]
39 | Cc1cc2oc(=O)sc2cc1NS(=O)(=O)c1cccc2cccnc12 | inconclusive: 25.1 µM [inhibitor, single point]
33 | CCCCn1c(SCC(=O)Nc2sc3c(c2C(N)=O)CCC3)nnc1-c1ccccc1 | inconclusive: 20 µM [inhibitor, full curve, poor fit]
